According to PubChem BioAssay AID504444 (National Center for Advancing Translational Sciences (NCATS), 2011):
Among all 360,000 compounds or so, about 7,500 (2.1%) were called active. Inconclusive results, whose numbers are uncertain, are shown with a selection of clear calls. The call rests on the fitted dose curve; in most records, active means well fitted inhibition curve with a large enough effect; inconclusive means small, poorly fitted or top-dose-only effect, or effect the other way; inactive means flat fitted curve, though single readings scatter. Where the call is inconclusive, the potency comes from a doubtful curve fit.

test: Nrf2 qHTS screen for inhibitors; settings: A549 ARE-Fluc reporter, luciferase luminescence, 18-24 h; activity change, negative = inhibition: at 46 µM (top of the series); further: nearly all actives have a fitted effect of over 60% in size
In short: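 Quantitative HTS in A549 cells stably bearing an antioxidant response element-firefly luciferase construct. Inhibition of Nrf2-driven transcription was scored by luminescence after 18-24 h of compound exposure at 37 °C.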
On the % scale 0 is the no-effect control and ±100 the full control effect; potency means the concentration at half of the fitted maximal effect.

Row | Structure (SMILES) | Potency | activity change, negative = inhibition
1 | COc1cc(CNC(=O)c2ccccc2NC(=O)C2=C(C)OCCS2)cc(OC)c1OC | inconclusive: 32.6 µM [falling, partial curve, poor fit] | 
2 | Cc1ccc(NCc2ccc(O)c3ncccc23)cc1C |  | inactive: 3.37%
3 | CC(C)c1ccc2nc(SCC(=O)NCC3CCCO3)c(C#N)cc2c1 (stereo unspecified) | inconclusive: 29.1 µM [activator, single point] | 
4 | Cc1ccccc1C(=O)NCC(=O)OC(C(=O)Nc1cc(C(F)(F)F)ccc1Cl)c1ccccc1 (stereo unspecified) |  | inactive: -17.9%
5 | CC12CCC(/C(=N/O)C1=O)C2(C)C (stereo unspecified) |  | inactive: -4.71%
6 | COc1cccc(-c2nc3ccc(C(=O)NC(C)Cc4cccnc4)cc3o2)c1 (stereo unspecified) | inconclusive: 3.26 µM [activator, full curve] | 
7 | COC(=O)c1cc2oc3ccccc3c2n1Cc1ccc(Cl)cc1 |  | inactive: 20.1%
8 | c1ccc2c(c1)-c1nc3ccccc3cc1C2N1CCOCC1 (stereo unspecified) | inconclusive: 20.6 µM [activator, single point] | 
9 | Cc1c(C(=O)Nc2ccccc2)sc2nc(-c3cc4cc(Cl)ccc4oc3=O)[nH]c(=O)c12 | inconclusive: 29.1 µM [activator, single point] | 
10 | CCCS(=O)(=O)c1c(S(=O)(=O)CCC)c2cc(C(C)(C)C)ccn2c1C(=O)c1ccccc1 |  | inactive: -6.82%
11 | CCN1/C(=C\C=C(C(C)=O)C(C)=O)Sc2ccccc21 |  | inactive: -1.57%
12 | NS(=O)(=O)c1ccc(CCNCc2cccs2)cc1 |  | inactive: 4.81%
13 | O=C(CC(=O)NCCc1ccccc1)NCCc1ccccc1 | inconclusive: 29.1 µM [falling, single point] | 
14 | CCC(=O)Nc1ccccc1-c1nc2ccccc2n(CC(=O)Nc2ccccc2OC)c1=O |  | inactive: 14.9%
15 | Cc1ccc(C(C(=O)NC2CCCCC2)N(Cc2ccco2)C(=O)Cc2c[nH]c3ccccc23)o1 (stereo unspecified) | inconclusive: 18.4 µM [falling, single point] | 
16 | O=C1C=C(Nc2cccc3cccnc23)c2ccccc2C1=O | inconclusive: 29.1 µM [falling, single point] | 
17 | Cc1cc(C)c(NC(=O)CSc2nnc(-c3ccco3)n2N)c(C)c1 | inconclusive: 0.146 µM [falling, full curve, poor fit] | 
18 | CC(=O)Oc1ccc(C(=O)[C@H]2[C@H]3C(=O)N(c4ccc5ccccc5c4)C(=O)[C@H]3[C@@H]3C=CC=NN32)cc1 | inconclusive: 16.4 µM [activator, partial curve] | 
19 | COC(=O)c1cc(OC)c(OC)cc1NC(=S)NC(=O)c1ccco1 |  | inactive: -22%
20 | Cc1cc(C)n(-c2cc(Oc3ccccc3)ncn2)n1 | inconclusive: 29.1 µM [activator, single point] | 
21 | c1ccc(-c2cc(N3CCOCC3)nc3ccccc23)cc1 | inconclusive: 29.1 µM [falling, single point] | 
22 | CCc1ccccc1OCC(=O)Nc1nc(-c2cccnc2)cs1 | active: 7.31 µM | 
23 | CCN(CC(=O)NC1CCS(=O)(=O)C1)S(=O)(=O)c1ccc2ccccc2c1 (stereo unspecified) |  | inactive: 8.42%

Row | Structure (SMILES) | Potency | activity change, negative = inhibition
24 | CC(=O)Nc1cccc(-c2csc(Nc3ccc(Cl)cn3)n2)c1 |  | inactive: -11.3%
25 | COc1cccc(Nc2nnc(SCc3nc4ccccc4s3)s2)c1 | inconclusive: 2.31 µM [activator, partial curve] | 
26 | O=C(c1ccc(OC2CCN(Cc3ccc(F)cc3)CC2)cc1)N1CCCC1 | inconclusive: 32.6 µM [falling, single point] | 
27 | CCN1CCc2c(sc(-n3cccc3)c2C(C)NC(=O)Nc2ccc(Br)cc2)C1 (stereo unspecified) | inconclusive: 14.6 µM [activator, single point] | 
28 | Cc1cc(C)c2cc(CN(CCO)C(=O)Nc3ccc(Cl)cc3)c(=O)[nH]c2c1 | inconclusive: 20.6 µM [falling, single point] | 
29 | COCCCn1c(C(=O)NC2CCCCC2C)cc2c(=O)n3cccc(C)c3nc21 (stereo unspecified) |  | inactive: 8.21%
30 | Cc1ccc(Cl)cc1NC(=S)N(CCCN1CCN(C)CC1)Cc1ccco1 | inconclusive: 23.1 µM [falling, single point] | 
31 | COc1cccc(CNc2ncc(-c3ccccc3)n2C)c1 |  | inactive: 0.973%
32 | COc1ccc2nc3c(cc2c1)c(NC(=O)CC(C)C)nn3CC(C)C | inconclusive: 0.731 µM [falling, full curve] | 
33 | Cc1[nH]n(-c2cccc(Cl)c2)c(=O)c1-c1ccc(Cl)cc1 | inconclusive: 23.1 µM [falling, partial curve] | 
34 | Cc1ccc(NC(=O)c2cc3ccccc3o2)nc1 | inconclusive: 0.411 µM [activator, full curve, poor fit] | 
35 | c1cncc(-c2nc(-c3ccc4c(c3)OCCO4)cs2)c1 | inconclusive: 10.3 µM [activator, partial curve] | 
36 | COc1ccc(N(Cc2cccs2)C(=O)c2ccc(OC)c(Cl)c2)cc1 | inconclusive: 29.1 µM [falling, single point] | 
37 | O=C(Oc1ccc(/C=N/NC(=O)c2ccco2)cc1)c1ccccc1 | inconclusive: 7.31 µM [activator, partial curve] | 
38 | COc1cc(NC(=O)c2ccc3snnc3c2)cc(OC)c1 | inconclusive: 2.31 µM [activator, full curve] | 
39 | N/C(=N\OC(=O)COc1ccccc1Cl)c1ccc(Cl)cc1 | inconclusive: 18.4 µM [activator, single point] | 
40 | O=C(Cn1ncc2c3ccccc3n(Cc3cccc(Cl)c3)c2c1=O)Nc1ccc(F)cc1F |  | inactive: 6.83%
41 | CC(C)(C)c1ccc(Cn2nnc3c(=O)[nH]c(C4CCN(C(=O)Cc5cccs5)CC4)nc32)cc1 | inconclusive: 25.9 µM [falling, single point] | 
42 | O=C1S/C(=C\C=C\c2ccco2)C(=O)N1c1ccccc1 |  | inactive: 0.636%
43 | Cc1nc(-c2ccc(Cl)cc2)sc1C1(C)CC(c2ccc(F)cc2)=NO1 (stereo unspecified) | inconclusive: 20.6 µM [activator, partial curve] | 
44 | Cc1cc(C)n2nc(SCC(=O)N(Cc3ccccc3)C3CCS(=O)(=O)C3)nc2n1 (stereo unspecified) |  | inactive: 4.83%
45 | COc1cc(C2c3cc4c(cc3OC(NCCc3ccccc3)C2C)OCO4)cc(OC)c1OC (stereo unspecified) |  | inactive: 24.1%
46 | O=C(Nc1nccs1)c1ccc(Cl)nc1 | inconclusive: 16.4 µM [activator, partial curve] | 

Individual results from the entries so far:
activity change, negative = inhibition, O=C1S/C(=C\C=C\c2ccco2)C(=O)N1c1ccccc1 is entered as inactive: 0.636%
Potency, COc1ccc2nc3c(cc2c1)c(NC(=O)CC(C)C)nn3CC(C)C is entered as inconclusive: 0.731 µM [falling, full curve]
Potency, CC(C)(C)c1ccc(Cn2nnc3c(=O)[nH]c(C4CCN(C(=O)Cc5cccs5)CC4)nc32)cc1 is entered as inconclusive: 25.9 µM [falling, single point]
Potency, COc1cccc(Nc2nnc(SCc3nc4ccccc4s3)s2)c1 is entered as inconclusive: 2.31 µM [activator, partial curve]
